According to the supplement of paper PMC10849652:
Some of the results follow.

By UniProt entry, the sequences of proteins in these tests, tags left out. Where a name states a change or a piece, a line headed by the entry shows the natural chain unless it says otherwise.
UniProt Q9Y5W9: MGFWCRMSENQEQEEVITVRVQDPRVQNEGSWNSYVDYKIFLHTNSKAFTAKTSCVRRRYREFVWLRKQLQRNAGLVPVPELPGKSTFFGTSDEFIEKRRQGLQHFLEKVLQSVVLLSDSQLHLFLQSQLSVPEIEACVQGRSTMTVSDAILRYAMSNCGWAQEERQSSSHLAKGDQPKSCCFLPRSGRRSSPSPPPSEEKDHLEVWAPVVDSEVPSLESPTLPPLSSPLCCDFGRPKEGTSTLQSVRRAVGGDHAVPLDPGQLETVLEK
UniProt O95721: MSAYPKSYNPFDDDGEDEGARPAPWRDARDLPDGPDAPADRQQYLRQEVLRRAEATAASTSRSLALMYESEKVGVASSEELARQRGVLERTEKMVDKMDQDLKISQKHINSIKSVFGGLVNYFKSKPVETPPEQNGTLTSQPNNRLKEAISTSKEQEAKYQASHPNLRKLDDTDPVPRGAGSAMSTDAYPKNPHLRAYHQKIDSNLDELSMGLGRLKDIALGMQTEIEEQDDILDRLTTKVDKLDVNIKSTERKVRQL
UniProt Q5VWJ9: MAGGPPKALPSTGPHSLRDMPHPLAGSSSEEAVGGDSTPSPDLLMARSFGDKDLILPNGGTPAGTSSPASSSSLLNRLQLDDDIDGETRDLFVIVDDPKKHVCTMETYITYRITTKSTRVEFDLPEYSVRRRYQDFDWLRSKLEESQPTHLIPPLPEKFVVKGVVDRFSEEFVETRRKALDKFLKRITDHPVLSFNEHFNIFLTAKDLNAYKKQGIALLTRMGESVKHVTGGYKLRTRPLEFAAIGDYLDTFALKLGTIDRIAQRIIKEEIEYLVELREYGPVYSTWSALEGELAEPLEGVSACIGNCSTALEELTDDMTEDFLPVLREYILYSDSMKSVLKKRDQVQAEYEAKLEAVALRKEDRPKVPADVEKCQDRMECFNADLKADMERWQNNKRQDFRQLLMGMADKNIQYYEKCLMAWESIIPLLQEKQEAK
UniProt Q15036: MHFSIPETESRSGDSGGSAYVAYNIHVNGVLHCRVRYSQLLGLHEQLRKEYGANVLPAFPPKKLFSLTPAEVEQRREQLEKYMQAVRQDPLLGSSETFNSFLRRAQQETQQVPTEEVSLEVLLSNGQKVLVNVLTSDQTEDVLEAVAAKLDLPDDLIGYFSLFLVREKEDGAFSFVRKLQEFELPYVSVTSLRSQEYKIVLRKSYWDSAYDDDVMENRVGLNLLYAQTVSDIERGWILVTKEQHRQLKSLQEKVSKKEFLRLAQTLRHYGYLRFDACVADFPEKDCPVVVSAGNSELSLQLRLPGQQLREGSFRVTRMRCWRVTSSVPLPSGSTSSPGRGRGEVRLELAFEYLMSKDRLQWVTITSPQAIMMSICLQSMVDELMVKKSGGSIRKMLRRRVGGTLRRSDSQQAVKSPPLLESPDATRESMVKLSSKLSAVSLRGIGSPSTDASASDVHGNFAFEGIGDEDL
UniProt A6NHR9: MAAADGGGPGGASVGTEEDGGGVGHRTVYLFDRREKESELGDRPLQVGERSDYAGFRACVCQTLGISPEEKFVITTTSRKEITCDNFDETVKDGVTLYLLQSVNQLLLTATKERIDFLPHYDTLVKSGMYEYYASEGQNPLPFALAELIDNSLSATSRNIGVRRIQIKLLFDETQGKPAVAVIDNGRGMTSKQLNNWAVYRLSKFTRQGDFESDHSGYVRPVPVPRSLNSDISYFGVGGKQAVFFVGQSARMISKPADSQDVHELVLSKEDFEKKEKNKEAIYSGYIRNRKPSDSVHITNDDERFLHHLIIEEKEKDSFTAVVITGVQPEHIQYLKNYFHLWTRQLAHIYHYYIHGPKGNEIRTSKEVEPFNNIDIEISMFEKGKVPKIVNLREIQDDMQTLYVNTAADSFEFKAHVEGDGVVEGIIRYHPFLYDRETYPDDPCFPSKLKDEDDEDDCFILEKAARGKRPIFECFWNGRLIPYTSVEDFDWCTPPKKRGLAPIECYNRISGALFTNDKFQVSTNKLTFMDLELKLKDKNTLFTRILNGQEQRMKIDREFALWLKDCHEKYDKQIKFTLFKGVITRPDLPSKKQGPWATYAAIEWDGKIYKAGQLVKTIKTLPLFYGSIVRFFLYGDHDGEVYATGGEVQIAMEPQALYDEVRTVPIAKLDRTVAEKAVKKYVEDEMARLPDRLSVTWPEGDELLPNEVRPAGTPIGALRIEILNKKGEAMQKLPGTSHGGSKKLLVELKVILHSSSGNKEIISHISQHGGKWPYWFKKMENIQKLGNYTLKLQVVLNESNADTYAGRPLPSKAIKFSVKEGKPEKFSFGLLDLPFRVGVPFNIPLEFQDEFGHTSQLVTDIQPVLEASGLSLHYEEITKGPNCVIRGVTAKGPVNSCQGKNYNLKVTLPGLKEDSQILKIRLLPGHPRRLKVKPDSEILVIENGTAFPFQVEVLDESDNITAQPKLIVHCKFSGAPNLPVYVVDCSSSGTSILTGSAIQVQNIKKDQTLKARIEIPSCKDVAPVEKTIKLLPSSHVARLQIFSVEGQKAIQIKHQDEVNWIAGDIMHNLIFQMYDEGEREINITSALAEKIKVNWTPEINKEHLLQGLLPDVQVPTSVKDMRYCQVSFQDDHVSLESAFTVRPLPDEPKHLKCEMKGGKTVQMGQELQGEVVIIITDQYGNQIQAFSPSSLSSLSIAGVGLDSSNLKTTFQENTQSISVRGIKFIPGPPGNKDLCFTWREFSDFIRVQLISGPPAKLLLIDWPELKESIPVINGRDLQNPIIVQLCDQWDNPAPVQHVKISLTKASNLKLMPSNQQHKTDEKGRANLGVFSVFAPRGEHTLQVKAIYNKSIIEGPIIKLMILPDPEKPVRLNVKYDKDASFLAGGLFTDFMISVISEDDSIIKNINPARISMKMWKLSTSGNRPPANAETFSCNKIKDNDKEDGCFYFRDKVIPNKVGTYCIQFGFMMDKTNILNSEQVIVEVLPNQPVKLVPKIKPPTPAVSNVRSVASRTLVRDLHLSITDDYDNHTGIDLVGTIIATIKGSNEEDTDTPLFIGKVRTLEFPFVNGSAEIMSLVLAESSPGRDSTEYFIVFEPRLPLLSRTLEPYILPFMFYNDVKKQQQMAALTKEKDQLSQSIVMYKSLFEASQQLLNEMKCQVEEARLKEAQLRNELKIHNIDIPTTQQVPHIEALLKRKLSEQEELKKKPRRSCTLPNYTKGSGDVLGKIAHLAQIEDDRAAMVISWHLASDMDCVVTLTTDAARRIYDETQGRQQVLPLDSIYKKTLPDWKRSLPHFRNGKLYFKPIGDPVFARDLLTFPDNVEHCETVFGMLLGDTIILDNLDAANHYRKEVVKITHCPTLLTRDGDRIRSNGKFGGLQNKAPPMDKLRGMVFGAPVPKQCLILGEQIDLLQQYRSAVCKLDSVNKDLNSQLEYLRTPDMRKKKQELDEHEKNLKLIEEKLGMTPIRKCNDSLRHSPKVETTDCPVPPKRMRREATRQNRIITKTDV
UniProt Q96SB8: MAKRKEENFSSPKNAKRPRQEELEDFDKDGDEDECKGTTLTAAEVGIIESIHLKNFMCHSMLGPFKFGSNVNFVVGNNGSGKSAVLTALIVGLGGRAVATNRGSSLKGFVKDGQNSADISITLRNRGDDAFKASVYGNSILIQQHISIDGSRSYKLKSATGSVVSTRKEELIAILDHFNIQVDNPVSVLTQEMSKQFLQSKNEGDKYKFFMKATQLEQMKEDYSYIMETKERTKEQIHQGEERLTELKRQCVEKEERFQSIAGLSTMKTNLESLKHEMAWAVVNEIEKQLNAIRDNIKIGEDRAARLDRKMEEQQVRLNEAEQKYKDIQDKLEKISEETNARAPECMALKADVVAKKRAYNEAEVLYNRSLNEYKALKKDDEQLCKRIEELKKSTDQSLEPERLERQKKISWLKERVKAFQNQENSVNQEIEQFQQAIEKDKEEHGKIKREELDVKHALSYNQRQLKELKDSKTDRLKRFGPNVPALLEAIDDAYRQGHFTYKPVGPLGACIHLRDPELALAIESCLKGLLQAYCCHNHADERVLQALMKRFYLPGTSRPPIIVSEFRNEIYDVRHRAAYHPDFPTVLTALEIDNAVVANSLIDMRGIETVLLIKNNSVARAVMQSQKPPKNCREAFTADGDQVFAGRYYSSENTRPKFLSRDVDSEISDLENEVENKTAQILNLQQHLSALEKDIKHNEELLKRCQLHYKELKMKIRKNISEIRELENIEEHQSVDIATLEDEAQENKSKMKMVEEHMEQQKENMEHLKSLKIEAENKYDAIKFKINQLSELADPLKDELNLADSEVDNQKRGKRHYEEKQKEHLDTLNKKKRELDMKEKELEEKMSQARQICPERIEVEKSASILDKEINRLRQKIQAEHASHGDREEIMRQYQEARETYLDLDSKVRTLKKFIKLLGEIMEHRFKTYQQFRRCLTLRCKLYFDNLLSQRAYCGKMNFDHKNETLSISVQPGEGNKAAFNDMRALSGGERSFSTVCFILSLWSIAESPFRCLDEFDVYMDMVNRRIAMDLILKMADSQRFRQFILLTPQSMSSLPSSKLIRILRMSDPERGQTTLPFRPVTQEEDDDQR
UniProt Q15506: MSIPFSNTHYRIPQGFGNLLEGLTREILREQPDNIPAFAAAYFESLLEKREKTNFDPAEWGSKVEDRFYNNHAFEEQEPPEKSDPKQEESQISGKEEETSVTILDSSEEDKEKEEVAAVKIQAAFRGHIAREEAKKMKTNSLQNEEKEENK
UniProt Q8TEV9: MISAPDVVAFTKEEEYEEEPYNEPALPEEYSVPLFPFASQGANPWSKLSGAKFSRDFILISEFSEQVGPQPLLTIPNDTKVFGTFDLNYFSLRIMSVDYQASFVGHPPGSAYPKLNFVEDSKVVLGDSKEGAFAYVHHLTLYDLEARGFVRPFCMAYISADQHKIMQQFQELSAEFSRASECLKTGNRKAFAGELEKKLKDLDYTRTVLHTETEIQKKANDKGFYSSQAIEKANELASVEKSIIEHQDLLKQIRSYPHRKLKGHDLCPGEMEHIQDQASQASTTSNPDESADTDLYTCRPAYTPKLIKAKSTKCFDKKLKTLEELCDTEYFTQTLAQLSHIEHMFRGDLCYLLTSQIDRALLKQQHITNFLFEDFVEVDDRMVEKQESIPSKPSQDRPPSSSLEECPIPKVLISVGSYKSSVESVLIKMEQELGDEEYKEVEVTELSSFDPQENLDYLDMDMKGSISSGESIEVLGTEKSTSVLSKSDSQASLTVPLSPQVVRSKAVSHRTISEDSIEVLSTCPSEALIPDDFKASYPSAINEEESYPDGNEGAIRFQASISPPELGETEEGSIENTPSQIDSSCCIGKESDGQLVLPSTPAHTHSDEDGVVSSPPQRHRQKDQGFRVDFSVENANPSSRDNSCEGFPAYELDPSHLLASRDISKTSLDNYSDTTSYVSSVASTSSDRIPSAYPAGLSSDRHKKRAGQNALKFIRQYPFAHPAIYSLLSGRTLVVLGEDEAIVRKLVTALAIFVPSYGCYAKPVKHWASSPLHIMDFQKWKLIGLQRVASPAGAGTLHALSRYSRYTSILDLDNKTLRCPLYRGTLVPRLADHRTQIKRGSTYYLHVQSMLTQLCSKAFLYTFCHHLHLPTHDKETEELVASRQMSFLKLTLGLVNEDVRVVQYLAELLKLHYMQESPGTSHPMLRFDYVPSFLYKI

What was measured:
Test in all cases: log2 fold change, soluble protein after heating vs DMSO (PISA); higher = thermal stabilisation; K562 lysate, 10 uM; active = over 0.2 and 3.5 SD of the protein, either way, in both replicates (recomputed)
[1] = compound: CS(=O)(=O)CCNCc1ccc(-c2ccc3ncnc(Nc4ccc(OCc5cccc(F)c5)c(Cl)c4)c3c2)o1 [lapatinib]
Procedure, shortened: (§1)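 Quantification was by TMTpro 16plex LC-MS/MS with equalised channel sums, applied to the supernatant after 21,000xg for 90 min. Samples were crude K562 extract at 1 mg/mL protein in PBS pH 7.4 with 1 mM MgCl2, treated with 10 μM compound for 30 min, heated for 3 min across 48°C-58°C, pooled and brought to 0.5% NP-40 at 4°C. Values are log-two fold changes in thermal stability relative to solvent controls, from duplicates.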

[2] = compound: CS(=O)(=O)N1CCN(Cc2cc3nc(-c4cccc5[nH]ncc45)nc(N4CCOCC4)c3s2)CC1 [pictilisib]
Procedure, shortened: as §1

[3] = compound: C[C@@H](Oc1cc(-c2cnn(C3CCNCC3)c2)cnc1N)c1c(Cl)ccc(F)c1Cl [crizotinib]
Procedure, shortened: as §1

[4] = compound: C[C@H](C1=CC=C(C=C1)C(=O)NC2=C3C=CNC3=NC=C2)N
Procedure, shortened: as §1

[5] = compound: C[C@H](Nc1ncnc2nc[nH]c12)c1cc2cccc(Cl)c2c(=O)n1-c1ccccc1 [duvelisib]
Procedure, shortened: as §1

[6] = compound: Cc1cc(Nc2cc(CN3CCOCC3)c3nc(C)c(Cc4ccc(Cl)cc4F)n3n2)n[nH]1 [gandotinib]
Procedure, shortened: as §1

[7] = compound: Cc1cc(Nc2cc(N3CCN(C)CC3)nc(Sc3ccc(NC(=O)C4CC4)cc3)n2)n[nH]1 [tozasertib]
Procedure, shortened: as §1

[8] = compound: Cc1ccc(-n2nc(C(C)(C)C)cc2NC(=O)Nc2ccc(OCCN3CCOCC3)c3ccccc23)cc1 [doramapimod]
Procedure, shortened: as §1

[9] = compound: Cc1ccc(NC(=O)c2ccc(CN3CC[C@H](N(C)C)C3)c(C(F)(F)F)c2)cc1Nc1nccc(-c2cncnc2)n1 [bafetinib]
Procedure, shortened: as §1

[10] = compound: Cc1cccc(CC(=O)N2CCc3c2ccc(-c2cn(C)c4ncnc(N)c24)c3F)n1
Procedure, shortened: as §1

[11] = compound: Cc1cn(-c2cc(NC(=O)c3ccc(C)c(Nc4nccc(-c5cccnc5)n4)c3)cc(C(F)(F)F)c2)cn1 [nilotinib]
Procedure, shortened: as §1

[12] = compound: Cc1nc(Nc2n[nH]c3c2CN(C(=O)N[C@H](CN(C)C)c2ccccc2)C3(C)C)c2sccc2n1
Procedure, shortened: as §1

[13] = compound: Cc1nc(Nc2ncc(C(=O)Nc3c(C)cccc3Cl)s2)cc(N2CCN(CCO)CC2)n1 [dasatinib]
Procedure, shortened: as §1

[14] = compound: Cc1ncc(-c2ccnc(Nc3ccc(S(C)(=O)=O)cc3)n2)n1C(C)C
Procedure, shortened: as §1

[15] = compound: Cn1cc(-c2ccc3c(c2)CCN3C(=O)Cc2cccc(C(F)(F)F)c2)c2c(N)ncnc21
Procedure, shortened: as §1

[16] = compound: Cn1cc(CNCC2CCN(c3ncc(C(=O)NO)cn3)CC2)c2ccccc21 [quisinostat]
Procedure, shortened: as §1

[17] = compound: Cn1cncc1[C@@](N)(c1ccc(Cl)cc1)c1ccc2c(c1)c(-c1cccc(Cl)c1)cc(=O)n2C [tipifarnib]
Procedure, shortened: as §1

[18] = compound: NC(=O)Nc1cc(-c2cccc(F)c2)sc1C(=O)N[C@H]1CCCNC1
Procedure, shortened: as §1

[19] = compound: NC(=O)c1cnc(N[C@@H]2CCCC[C@@H]2N)nc1Nc1cccc(-n2nccn2)c1
Procedure, shortened: as §1

[20] = compound: NC1(c2ccc(-c3nc4ccn5c(=O)[nH]nc5c4cc3-c3ccccc3)cc2)CCC1
Procedure, shortened: as §1

SNX11 (UniProt Q9Y5W9)
log2 fold change [1]: inactive: -0.002 | log2 fold change [2]: inactive: -0.021 | log2 fold change [3]: inactive: -0.025 | log2 fold change [4]: inactive: -0.064 | log2 fold change [5]: inactive: 0.014 | log2 fold change [6]: inactive: 0.007 | log2 fold change [7]: inactive: -0.024 | log2 fold change [8]: inactive: 0.004 | log2 fold change [9]: inactive: -0.019 | log2 fold change [10]: inactive: -0.01 | log2 fold change [11]: inactive: -0.013 | log2 fold change [12]: inactive: -0.055 | log2 fold change [13]: inactive: 0.005 | log2 fold change [14]: inactive: -0.062 | log2 fold change [15]: inactive: 0.001 | log2 fold change [16]: inactive: -0.02 | log2 fold change [17]: inactive: 0.018 | log2 fold change [18]: inactive: 0.051 | log2 fold change [19]: inactive: 0.005 | log2 fold change [20]: inactive: 0.017

SNAP29 (UniProt O95721)
log2 fold change [1]: inactive: 0.031 | log2 fold change [2]: inactive: 0.093 | log2 fold change [3]: inactive: 0.048 | log2 fold change [4]: inactive: -0.034 | log2 fold change [5]: inactive: -0.025 | log2 fold change [6]: inactive: 0.107 | log2 fold change [7]: inactive: 0.008 | log2 fold change [8]: inactive: 0.073 | log2 fold change [9]: inactive: -0.032 | log2 fold change [10]: inactive: 0 | log2 fold change [11]: inactive: 0.024 | log2 fold change [12]: inactive: -0.014 | log2 fold change [13]: inactive: 0.031 | log2 fold change [14]: inactive: -0.023 | log2 fold change [15]: inactive: -0.013 | log2 fold change [16]: inactive: -0.044 | log2 fold change [17]: inactive: -0.015 | log2 fold change [18]: inactive: -0.011 | log2 fold change [19]: inactive: -0.007 | log2 fold change [20]: inactive: 0.031

SNX30 (UniProt Q5VWJ9)
log2 fold change [1]: inactive: -0.08 | log2 fold change [2]: inactive: -0.059 | log2 fold change [3]: inactive: -0.006 | log2 fold change [4]: inactive: -0.002 | log2 fold change [5]: inactive: 0.017 | log2 fold change [6]: inactive: -0.03 | log2 fold change [8]: inactive: 0.003 | log2 fold change [9]: inactive: -0.01 | log2 fold change [10]: inactive: 0.058 | log2 fold change [11]: inactive: -0.042 | log2 fold change [12]: inactive: -0.005 | log2 fold change [13]: inactive: -0.02 | log2 fold change [14]: inactive: -0.046 | log2 fold change [15]: inactive: 0.039 | log2 fold change [16]: inactive: 0.014 | log2 fold change [17]: inactive: 0.023 | log2 fold change [18]: inactive: 0.059 | log2 fold change [19]: inactive: 0.081 | log2 fold change [20]: inactive: -0.004

SNX17 (UniProt Q15036)
log2 fold change [1]: inactive: 0.02 | log2 fold change [2]: inactive: -0.025 | log2 fold change [3]: inactive: -0.039 | log2 fold change [4]: inactive: 0.08 | log2 fold change [5]: inactive: -0.049 | log2 fold change [6]: inactive: -0.009 | log2 fold change [7]: inactive: 0.02 | log2 fold change [8]: inactive: -0.005 | log2 fold change [9]: inactive: -0.067 | log2 fold change [10]: inactive: -0.001 | log2 fold change [11]: inactive: 0.053 | log2 fold change [12]: inactive: 0.023 | log2 fold change [13]: inactive: 0.049 | log2 fold change [14]: inactive: 0.084 | log2 fold change [15]: inactive: -0.017 | log2 fold change [16]: inactive: 0.019 | log2 fold change [17]: inactive: -0.011 | log2 fold change [18]: inactive: -0.024 | log2 fold change [19]: inactive: 0.004 | log2 fold change [20]: inactive: -0.001

SMCHD1 (UniProt A6NHR9)
log2 fold change [1]: inactive: -0.034 | log2 fold change [2]: inactive: -0.01 | log2 fold change [3]: inactive: -0.041 | log2 fold change [4]: inactive: -0.077 | log2 fold change [5]: inactive: 0.017 | log2 fold change [6]: inactive: 0.031 | log2 fold change [7]: inactive: 0.034 | log2 fold change [8]: inactive: 0.036 | log2 fold change [9]: inactive: 0.003 | log2 fold change [10]: inactive: 0.028 | log2 fold change [11]: inactive: 0.011 | log2 fold change [12]: inactive: -0.04 | log2 fold change [13]: inactive: -0.005 | log2 fold change [14]: inactive: -0.029 | log2 fold change [15]: inactive: 0.058 | log2 fold change [16]: inactive: -0.062 | log2 fold change [17]: inactive: 0.018 | log2 fold change [18]: inactive: 0.072 | log2 fold change [19]: inactive: 0.024 | log2 fold change [20]: inactive: -0.004

SMC6 (UniProt Q96SB8)
log2 fold change [1]: inactive: -0.051 | log2 fold change [2]: inactive: -0.06 | log2 fold change [3]: inactive: -0.026 | log2 fold change [4]: inactive: -0.039 | log2 fold change [5]: inactive: 0.034 | log2 fold change [6]: inactive: -0.002 | log2 fold change [7]: inactive: 0.004 | log2 fold change [8]: inactive: -0.011 | log2 fold change [9]: inactive: 0.007 | log2 fold change [10]: inactive: 0.029 | log2 fold change [11]: inactive: 0.006 | log2 fold change [12]: inactive: 0 | log2 fold change [13]: inactive: -0.021 | log2 fold change [14]: inactive: -0.019 | log2 fold change [15]: inactive: 0.012 | log2 fold change [16]: inactive: -0.012 | log2 fold change [17]: inactive: -0.06 | log2 fold change [18]: inactive: 0.034 | log2 fold change [19]: inactive: 0.001 | log2 fold change [20]: inactive: 0.013

SPA17 (UniProt Q15506)
log2 fold change [1]: inactive: 0.058 | log2 fold change [2]: inactive: -0.012 | log2 fold change [3]: inactive: 0.019 | log2 fold change [4]: active: -0.498 | log2 fold change [5]: inactive: 0.009 | log2 fold change [6]: inactive: 0.303 | log2 fold change [7]: inactive: -0.022 | log2 fold change [8]: inactive: 0.054 | log2 fold change [9]: inactive: -0.076 | log2 fold change [10]: inactive: 0.25 | log2 fold change [13]: inactive: -0.065 | log2 fold change [15]: inactive: -0.041 | log2 fold change [16]: inactive: 0.003 | log2 fold change [18]: inactive: -0.015 | log2 fold change [19]: inactive: 0.042

SMCR8 (UniProt Q8TEV9)
log2 fold change [1]: inactive: 0.001 | log2 fold change [2]: inactive: 0.001 | log2 fold change [3]: inactive: 0.034 | log2 fold change [4]: inactive: -0.086 | log2 fold change [5]: inactive: 0.057 | log2 fold change [6]: inactive: 0.067 | log2 fold change [7]: inactive: 0.05 | log2 fold change [8]: inactive: -0.012 | log2 fold change [9]: inactive: -0.043 | log2 fold change [10]: inactive: 0.057 | log2 fold change [11]: inactive: 0.042 | log2 fold change [12]: inactive: -0.057 | log2 fold change [13]: inactive: -0.03 | log2 fold change [14]: inactive: -0.04 | log2 fold change [15]: inactive: -0.065 | log2 fold change [16]: inactive: -0.036 | log2 fold change [17]: inactive: -0.017 | log2 fold change [18]: inactive: -0.003 | log2 fold change [19]: inactive: 0.049 | log2 fold change [20]: inactive: 0.022
